# Experimental data from patent publication US20230174616A1.
# Protein sequences, listed by entry. Tags and fused reporters are not part of them. Lines headed by an entry give the natural chain unless they say otherwise; changes in a name come on top.
# UniProt Q9NZQ7: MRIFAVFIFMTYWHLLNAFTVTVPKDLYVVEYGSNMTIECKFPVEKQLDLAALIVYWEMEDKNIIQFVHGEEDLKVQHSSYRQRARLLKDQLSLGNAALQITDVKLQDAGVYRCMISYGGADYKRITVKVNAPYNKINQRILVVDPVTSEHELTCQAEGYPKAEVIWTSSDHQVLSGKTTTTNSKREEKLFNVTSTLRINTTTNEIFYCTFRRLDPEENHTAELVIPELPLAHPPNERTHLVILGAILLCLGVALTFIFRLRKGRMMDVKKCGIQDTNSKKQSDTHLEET
# These are yes or no findings as the source states them, for the method shown. For some of these results: In cells and extracts the contact can be indirect. Some binding calls cover weakened binding; strength is not graded here.
# Tests used:
# [1] = biological target: biotinylated hPD-L1 (extracellular domain of human PD-L1, Ala18 to Thr239, expressed in E. coli, non-glycosylated) (human); assay: radioactive pull-down of [35S]-labeled alanine variant on immobilized hPD-L1, normalized to SPAM
# [2] = biological target: biotinylated hPD-L1 (extracellular domain of human PD-L1, Ala18 to Thr239, expressed in E. coli, non-glycosylated) (human); assay: [35S]-labeled variant on immobilized hPD-L1, normalized to SPAM
# [3] = biological target: hPD-L1* (recombinant glycosylated human PD-L1 ectodomain, A18-T239, expressed in Expi293F cells) (human) (UniProt Q9NZQ7); assay: radioactive pull-down of [35S]-labeled SPAM on immobilized target, normalized to hPD-L1* [cont.) E]
# [4] = biological target: hPD-L1* (recombinant glycosylated human PD-L1 ectodomain, A18-T239, expressed in Expi293F cells) (human) (UniProt Q9NZQ7); assay: radioactive pull-down
binding [1],binding [2],binding [3],binding [4],Binder
binds,binds,–,–,MPIFLDHILNKFWILHAAGSGSSGHHHHHHSS ([35S]-methionine label) [SPAM Y18A variant as printed (tyrosine of SPAM replaced by alanine; Tyr stands at position 17)]
–,–,binds,binds,MPIFLDHILNKFWILHYAGSGSSGHHHHHHSS ([35S]-methionine label) [[35S]-labeled SPAM peptide (in vitro translated)]
